Results are given in words; binding and its absence hold for the method and conditions named. In cells and extracts the contact can be indirect. A yes stands for co-enrichment or nearness to the bait. Other partners may have been found. Sequences can lack the tags named with a protein.
T1: 3xFLAG-CUZD1 (recombinant FLAG epitope-tagged CUZD1) (UniProt P70412)
T1 sequence: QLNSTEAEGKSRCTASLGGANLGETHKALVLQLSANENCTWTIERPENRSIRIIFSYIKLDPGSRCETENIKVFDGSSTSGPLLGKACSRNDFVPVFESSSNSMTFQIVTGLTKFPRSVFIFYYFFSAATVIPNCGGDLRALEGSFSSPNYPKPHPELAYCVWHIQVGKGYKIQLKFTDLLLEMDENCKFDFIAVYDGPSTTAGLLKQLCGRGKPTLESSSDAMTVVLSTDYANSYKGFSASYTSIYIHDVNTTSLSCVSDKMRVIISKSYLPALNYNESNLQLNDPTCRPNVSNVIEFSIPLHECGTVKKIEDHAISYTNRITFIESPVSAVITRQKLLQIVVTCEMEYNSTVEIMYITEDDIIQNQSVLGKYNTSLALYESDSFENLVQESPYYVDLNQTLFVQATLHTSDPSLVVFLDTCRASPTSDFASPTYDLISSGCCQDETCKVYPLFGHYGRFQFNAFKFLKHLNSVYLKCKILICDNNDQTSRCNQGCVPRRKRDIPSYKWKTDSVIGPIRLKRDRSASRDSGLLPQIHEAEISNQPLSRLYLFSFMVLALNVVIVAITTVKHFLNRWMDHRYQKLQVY

Protein sequences, listed by entry. Tags and fused reporters are not part of them.
UniProt Q62120: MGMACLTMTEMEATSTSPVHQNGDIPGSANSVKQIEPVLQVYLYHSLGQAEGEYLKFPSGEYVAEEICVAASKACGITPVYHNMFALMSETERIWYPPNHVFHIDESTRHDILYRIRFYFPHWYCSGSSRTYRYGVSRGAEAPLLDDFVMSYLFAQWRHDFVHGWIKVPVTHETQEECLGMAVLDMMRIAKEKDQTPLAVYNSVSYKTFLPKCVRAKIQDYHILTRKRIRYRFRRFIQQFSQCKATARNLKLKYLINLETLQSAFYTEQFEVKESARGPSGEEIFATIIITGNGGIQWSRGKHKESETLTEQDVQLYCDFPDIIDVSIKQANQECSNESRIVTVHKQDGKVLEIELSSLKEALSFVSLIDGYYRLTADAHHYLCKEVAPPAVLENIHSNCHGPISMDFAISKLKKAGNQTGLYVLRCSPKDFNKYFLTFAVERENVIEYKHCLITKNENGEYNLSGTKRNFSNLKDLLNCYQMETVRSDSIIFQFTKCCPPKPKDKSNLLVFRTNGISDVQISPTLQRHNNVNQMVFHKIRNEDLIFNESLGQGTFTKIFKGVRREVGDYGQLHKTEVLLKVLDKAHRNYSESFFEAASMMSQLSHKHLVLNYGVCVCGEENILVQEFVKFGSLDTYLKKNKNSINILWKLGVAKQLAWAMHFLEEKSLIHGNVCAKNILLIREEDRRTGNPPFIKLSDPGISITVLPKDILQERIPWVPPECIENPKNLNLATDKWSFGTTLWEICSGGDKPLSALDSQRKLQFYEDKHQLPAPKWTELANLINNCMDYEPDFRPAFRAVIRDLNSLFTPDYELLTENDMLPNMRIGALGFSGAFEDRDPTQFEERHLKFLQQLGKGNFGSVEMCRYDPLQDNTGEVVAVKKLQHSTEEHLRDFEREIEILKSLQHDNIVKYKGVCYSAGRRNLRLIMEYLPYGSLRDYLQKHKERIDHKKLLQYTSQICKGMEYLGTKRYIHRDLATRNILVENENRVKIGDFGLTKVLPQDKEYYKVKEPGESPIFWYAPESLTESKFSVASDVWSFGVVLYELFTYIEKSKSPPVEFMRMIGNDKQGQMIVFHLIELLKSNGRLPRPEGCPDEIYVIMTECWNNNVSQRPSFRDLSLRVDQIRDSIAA
UniProt P52332: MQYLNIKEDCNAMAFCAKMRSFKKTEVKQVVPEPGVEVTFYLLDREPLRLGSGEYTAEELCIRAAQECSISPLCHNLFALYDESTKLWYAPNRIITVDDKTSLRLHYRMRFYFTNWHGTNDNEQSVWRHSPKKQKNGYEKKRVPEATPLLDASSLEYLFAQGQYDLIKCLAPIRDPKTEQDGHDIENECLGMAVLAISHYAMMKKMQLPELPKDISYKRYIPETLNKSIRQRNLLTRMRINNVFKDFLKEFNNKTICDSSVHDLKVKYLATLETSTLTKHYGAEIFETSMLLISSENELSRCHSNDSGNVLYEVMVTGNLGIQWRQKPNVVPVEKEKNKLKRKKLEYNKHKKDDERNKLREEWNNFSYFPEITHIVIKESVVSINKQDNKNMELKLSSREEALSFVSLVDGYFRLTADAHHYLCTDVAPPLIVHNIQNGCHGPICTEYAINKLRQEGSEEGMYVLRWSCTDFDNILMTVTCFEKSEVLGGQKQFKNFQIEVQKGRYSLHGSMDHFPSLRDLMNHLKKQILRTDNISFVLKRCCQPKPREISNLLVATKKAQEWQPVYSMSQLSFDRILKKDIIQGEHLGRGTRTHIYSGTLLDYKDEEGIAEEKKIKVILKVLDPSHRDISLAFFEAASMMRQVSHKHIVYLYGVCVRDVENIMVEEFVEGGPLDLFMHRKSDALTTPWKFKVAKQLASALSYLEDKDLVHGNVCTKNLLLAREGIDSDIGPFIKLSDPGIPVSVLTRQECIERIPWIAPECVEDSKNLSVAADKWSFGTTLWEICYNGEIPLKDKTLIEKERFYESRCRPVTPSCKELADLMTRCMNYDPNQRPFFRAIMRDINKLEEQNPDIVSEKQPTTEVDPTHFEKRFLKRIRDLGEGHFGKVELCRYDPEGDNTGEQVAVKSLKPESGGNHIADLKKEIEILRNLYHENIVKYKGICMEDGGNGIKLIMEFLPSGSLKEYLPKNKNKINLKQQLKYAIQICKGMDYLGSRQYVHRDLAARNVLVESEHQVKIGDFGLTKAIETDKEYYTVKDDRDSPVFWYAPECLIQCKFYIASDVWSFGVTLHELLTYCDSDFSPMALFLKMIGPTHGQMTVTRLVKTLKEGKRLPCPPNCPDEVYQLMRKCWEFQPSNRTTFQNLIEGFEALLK


Biological target: T1, 3xFLAG-CUZD1 (recombinant FLAG epitope-tagged CUZD1)
Assay: affinity purification with mass spectrometry; soluble extracts of HC11-3xFLAG-Cuzd1 cells, immunoprecipitation with a FLAG antibody, LC/MS of the recovered proteins (Mascot)

Row | binding | Molecule
1 | binds | Janus tyrosine kinase 2 (JAK2) (from UniProt Q62120 1-1132)
2 | binds | Janus tyrosine kinase 1 (JAK1) (from UniProt P52332 1-1153)
3 | binds | phosphoribosyl pyrophosphate synthetase 1 (protein, UniProt Q9D7G0 1-318) MPNIKIFSGSSHQDLSQKIADRLGLELGKVVTKKFSNQETCVEIGESVRGEDVYIVQSGCGEINDNLMELLIMINACKIASASRVTAVIPCFPYARQDKKDKSRAPISAKLVANMLSVAGADHIITMDLHASQIQGFFDIPVDNLYAEPAVLKWIRENISEWRNCTIVSPDAGGAKRVTSIADRLNVDFALIHKERKKANEVDRMVLVGDVKDRVAILVDDMADTCGTICHAADKLLSAGATRVYAILTHGIFSGPAISRINNACFEAVVVTNTIPQEDKMKHCSKIQVIDISMILAEAIRRTHNGESVSYLFSHVPL

From article PMC5363987
